Assay results: the supplement of paper PMC4604168 (melanoma cell lines)
The other results are listed elsewhere or left out. Single values are uncertain, as repeats are few or missing.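 Imaging used 1,536-well plates; nuclei positive for cleaved PARP by antibody were divided by total DNA-stained nuclei to yield the apoptosis fraction. Doses for screening kept most cells viable, and cell lines differ markedly in resting and induced cleaved-PARP levels.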

How the values were obtained:
Experiment in all cases: cleaved PARP positive nuclei fraction relative to DMSO control; melanoma cells; higher = more apoptosis
Details in all cases: library dose: low library concentration; 72 h
[1] = system: CBRC034 (line from a melanoma biopsy)
[2] = system: COLO792
[3] = system: COLO800
[4] = system: COLO829
[5] = system: G361
[6] = system: IPC-298
[7] = system: IST-MEL1
[8] = system: LB2518-MEL
[9] = system: LOXIMVI
[10] = system: MZ2-MEL
[11] = system: MeWo
[12] = system: RPMI7951
[13] = system: RVH-421
[14] = system: SkMel28
[15] = system: SkMel30
[16] = system: SkMel5
[17] = system: UACC257
[18] = system: UACC62

Row | SMILES | cleaved PARP positive nuclei fraction [1] | cleaved PARP positive nuclei fraction [2] | cleaved PARP positive nuclei fraction [3] | cleaved PARP positive nuclei fraction [4] | cleaved PARP positive nuclei fraction [5] | cleaved PARP positive nuclei fraction [6] | cleaved PARP positive nuclei fraction [7] | cleaved PARP positive nuclei fraction [8] | cleaved PARP positive nuclei fraction [9] | cleaved PARP positive nuclei fraction [10] | cleaved PARP positive nuclei fraction [11] | cleaved PARP positive nuclei fraction [12] | cleaved PARP positive nuclei fraction [13] | cleaved PARP positive nuclei fraction [14] | cleaved PARP positive nuclei fraction [15] | cleaved PARP positive nuclei fraction [16] | cleaved PARP positive nuclei fraction [17] | cleaved PARP positive nuclei fraction [18]
1 | Nc1cccc2c1CN(C1CCC(=O)NC1=O)C2=O (centres undefined) [lenalidomide] + CCN(CC)CCCCNc1ncc2cc(-c3cc(OC)cc(OC)c3)c(NC(=O)NC(C)(C)C)nc2n1 [PD173074] (first compound 1 µM, partner dose 0.1 µM) | 58% | 149% | 94.2% | 110% | 51.8% | 80.5% | 36.1% | 51.9% | 62.8% | 113% | 49.8% | 39% | 49.3% | 83% | 27.2% | 49.2% | 164% | 35.4%
2 | C=CCn1c(=O)c2cnc(Nc3ccc(N4CCN(C)CC4)cc3)nc2n1-c1cccc(C(C)(C)O)n1 + CC(C)CCN1c2nc(Nc3cc(F)c(O)c(F)c3)ncc2N(C)C(=O)C1C [BID1870] (first compound 0.02 µM, partner dose 0.2 µM) | 118% | 96.4% | 197% | 51.9% | 63.3% | 81.8% | 163% | 112% | 57.5% | 150% | 234% | 40.4% | 76.2% | 256% | 40.6% | 229% | 83.1% | 397%
3 | NC(=O)Nc1cc(-c2cccc(F)c2)sc1C(=O)N[C@H]1CCCNC1 + Cn1cc(/C=C2\C(=O)Nc3cccnc32)c2ccccc21 [GW441756] (first compound 0.02 µM, partner dose 0.4 µM) | 73.8% | 96.6% | 161% | 54.7% | 50% | 60.5% | 99.8% | 165% | 60.6% | 56.8% | 156% | 98.7% | 41.9% | 170% | 1440% | 75.5% | 41.5% | 65.7%
4 | CC(C)(C)c1cnc(CSc2cnc(NC(=O)C3CCNCC3)s2)o1 + COc1ccc2c(c1)CCC1C2CCC2(C)C(NCCCCCCN3C(=O)C=CC3=O)CCC12 [U73122] (first compound 0.01 µM, partner dose 0.4 µM) | 63.1% | 104% | 152% | 62.8% | 158% | 195% | 175% | 87% | 41.4% | 88.4% | 49.5% | 95.4% | 48.7% | 110% | 24.9% | 74.1% | 57.2% | 66.8%
5 | COc1cc(Nc2ncc(F)c(Nc3ccc4c(n3)NC(=O)C(C)(C)O4)n2)cc(OC)c1OC [Tamatinib] + COc1cc(N2CCC(N3CCN(C)CC3)CC2)ccc1Nc1ncc(Cl)c(Nc2ccccc2S(=O)(=O)C(C)C)n1 [NVP-TAE684] (first compound 0.4 µM, partner dose 0.08 µM) | 132% | 245% | 97.1% | 161% | 122% | 243% | 30.2% | 333% | 36.3% | 152% | 20.1% | 62.5% | 40.8% | 198% | 188% | 81.5% | 136% | 91%
6 | COc1cc(Nc2ncc(F)c(Nc3ccc4c(n3)NC(=O)C(C)(C)O4)n2)cc(OC)c1OC [Tamatinib] + COc1ccc(-c2ccc3c(N4CCOCC4)nc(N4C[C@@H](C)O[C@@H](C)C4)nc3n2)cc1CO [KU0063794] (first compound 0.4 µM, partner dose 0.02 µM) | 33.6% | 263% | 79.1% | 133% | 132% | 114% | 113% | 139% | 31.9% | 172% | 137% | 95.2% | 230% | 212% | 114% | 137% | 136% | 48.1%
7 | CC1(C)NC(=O)N(c2ccc([N+](=O)[O-])c(C(F)(F)F)c2)C1=O [nilutamide] + N#Cc1c(O)c2c(-c3ccc(-c4ccccc4O)cc3)csc2[nH]c1=O [A769662] (first compound 1 µM, partner dose 2 µM) | 74.3% | 83.4% | 75.9% | 130% | 93.5% | 105% | 101% | 38.3% | 26.1% | 22.1% | 49.9% | 221% | 74.8% | 141% | 180% | 81.8% | 105% | 93.5%
8 | CC1(C)NC(=O)N(c2ccc([N+](=O)[O-])c(C(F)(F)F)c2)C1=O [nilutamide] + O=S(=O)(c1ccccc1)N(CC(F)(F)F)c1ccc(C(O)(C(F)(F)F)C(F)(F)F)cc1 [T0901317] (first compound 1 µM, partner dose 1.4 µM) | 83.6% | 76.8% | 92.3% | 92.4% | 83.6% | 101% | 39.7% | 40.8% | 31.4% | 91.6% | 106% | 70.3% | 114% | 148% | 30.8% | 32% | 228% | 83.7%
9 | C=CCn1c(=O)c2cnc(Nc3ccc(N4CCN(C)CC4)cc3)nc2n1-c1cccc(C(C)(C)O)n1 + CCCCCCCCCCCC1=C(O)C(=O)C=C(O)C1=O [Embelin] (first compound 0.02 µM, partner dose 1.2 µM) | 94.5% | 164% | 149% | 134% | 70.6% | 141% | 82.4% | 105% | 78.4% | 83.9% | 67.5% | 90.1% | 514% | 130% | 51.6% | 548% | 179% | 405%
10 | O=C(Nc1cccc(Cl)c1)Nc1ncc(CCNc2ncnc3ccsc23)s1 + O=C(Nc1ccccc1)c1cc([N+](=O)[O-])ccc1Cl [GW9662] (first compound 0.0008 µM, partner dose 2 µM) | 192% | 104% | 65.9% | 110% | 116% | 46.8% | 89.1% | 94.5% | 70% | 122% | 519% | 74.4% | 39.7% | 130% | 32.1% | 64.2% | 94% | 56.1%
11 | COc1cc(Nc2ncc(F)c(Nc3ccc4c(n3)NC(=O)C(C)(C)O4)n2)cc(OC)c1OC [Tamatinib] + CCCCCCCCCCCC1=C(O)C(=O)C=C(O)C1=O [Embelin] (first compound 0.4 µM, partner dose 1.2 µM) | 184% | 148% | 184% | 129% | 105% | 40.2% | 102% | 97.6% | 38.3% | 139% | 45.6% | 58.8% | 97.4% | 64.7% | 105% | 29.1% | 74.3% | 43.2%
12 | Cn1cncc1[C@@](N)(c1ccc(Cl)cc1)c1ccc2c(c1)c(-c1cccc(Cl)c1)cc(=O)n2C [tipifarnib] + COc1cc(N2CCC(N3CCN(C)CC3)CC2)ccc1Nc1ncc(Cl)c(Nc2ccccc2S(=O)(=O)C(C)C)n1 [NVP-TAE684] (first compound 0.01 µM, partner dose 0.08 µM) | 668% | 148% | 62.3% | 90.3% | 144% | 87.4% | 119% | 103% | 314% | 73.5% | 199% | 24% | 71.2% | 99.1% | 125% | 149% | 204% | 96.8%
13 | Cc1ccc(NC(=O)c2cccc(N(C)C)c2)cc1NC(=O)c1ccc(O)cc1 + COc1cc(N2CCC(N3CCN(C)CC3)CC2)ccc1Nc1ncc(Cl)c(Nc2ccccc2S(=O)(=O)C(C)C)n1 [NVP-TAE684] (first compound 2 µM, partner dose 0.08 µM) | 48.2% | 69.9% | 113% | 89.5% | 47.7% | 44.5% | 129% | 165% | 1590% | 171% | 52.9% | 71.2% | 114% | 238% | 34.2% | 51.4% | 238% | 702%
14 | C#Cc1cccc(Nc2ncnc3cc(OCCOC)c(OCCOC)cc23)c1 [erlotinib] + c1cc(-c2cnn3cc(-c4ccc(OCCN5CCCCC5)cc4)cnc23)ccn1 [Dorsomorphin] (first compound 0.8 µM, partner dose 0.4 µM) | 83% | 202% | 165% | 99.2% | 106% | 102% | 43.4% | 279% | 97.6% | 87.4% | 37.1% | 253% | 98% | 104% | 29.5% | 32.1% | 221% | 183%
15 | OCCn1cc(-c2cnc3nnn(Cc4ccc5ncccc5c4)c3n2)cn1 + COC(=O)c1sccc1S(=O)(=O)Nc1ccc(Nc2ccccc2)cc1OC [GSK0660] (first compound 1 µM, partner dose 1 µM) | 97.6% | 90.5% | 75.6% | 179% | 89.5% | 56.5% | 121% | 75.2% | 32.1% | 124% | 222% | 141% | 98.2% | 93.7% | 82.4% | 34.5% | 61.8% | 292%
16 | O=C(CCCCCCC(=O)Nc1ccccc1)NO [vorinostat] + CCN(CC)CCCCNc1ncc2cc(-c3cc(OC)cc(OC)c3)c(NC(=O)NC(C)(C)C)nc2n1 [PD173074] (first compound 0.08 µM, partner dose 0.1 µM) | 97.6% | 120% | 90.9% | 39.4% | 33.1% | 54% | 30.6% | 150% | 94.2% | 94.8% | 106% | 85.5% | 173% | 108% | 43% | 34.9% | 119% | 40.7%
17 | C[C@]1(c2nc3c(C(N)=O)cccc3[nH]2)CCCN1 [Veliparib] + CC(C)CCN1c2nc(Nc3cc(F)c(O)c(F)c3)ncc2N(C)C(=O)C1C [BID1870] (first compound 1.4 µM, partner dose 0.2 µM) | 41.8% | 186% | 102% | 87.2% | 169% | 91.2% | 84.6% | 89.5% | 37.2% | 120% | 62.8% | 79.2% | 36.1% | 112% | 60.4% | 18% | 98.9% | 47.3%
18 | OCCn1cc(-c2cnc3nnn(Cc4ccc5ncccc5c4)c3n2)cn1 + CCc1ccc(CCOc2ccc(CC3SC(=O)NC3=O)cc2)nc1 [pioglitazone] (first compound 1 µM, partner dose 2 µM) | 167% | 58% | 81.2% | 28.7% | 55.6% | 81% | 43.9% | 95% | 64.9% | 128% | 51% | 47.1% | 153% | 113% | 313% | 56.6% | 51.2% | 159%

Record cards (already shown). Values in the order: cleaved PARP positive nuclei fraction [1]	cleaved PARP positive nuclei fraction [2]	cleaved PARP positive nuclei fraction [3]	cleaved PARP positive nuclei fraction [4]	cleaved PARP positive nuclei fraction [5]	cleaved PARP positive nuclei fraction [6]	cleaved PARP positive nuclei fraction [7]	cleaved PARP positive nuclei fraction [8]	cleaved PARP positive nuclei fraction [9]	cleaved PARP positive nuclei fraction [10]	cleaved PARP positive nuclei fraction [11]	cleaved PARP positive nuclei fraction [12]	cleaved PARP positive nuclei fraction [13]	cleaved PARP positive nuclei fraction [14]	cleaved PARP positive nuclei fraction [15]	cleaved PARP positive nuclei fraction [16]	cleaved PARP positive nuclei fraction [17]	cleaved PARP positive nuclei fraction [18]
OCCn1cc(-c2cnc3nnn(Cc4ccc5ncccc5c4)c3n2)cn1 + COC(=O)c1sccc1S(=O)(=O)Nc1ccc(Nc2ccccc2)cc1OC [GSK0660] (first compound 1 µM, partner dose 1 µM) as listed: 97.6%	90.5%	75.6%	179%	89.5%	56.5%	121%	75.2%	32.1%	124%	222%	141%	98.2%	93.7%	82.4%	34.5%	61.8%	292%
OCCn1cc(-c2cnc3nnn(Cc4ccc5ncccc5c4)c3n2)cn1 + CCc1ccc(CCOc2ccc(CC3SC(=O)NC3=O)cc2)nc1 [pioglitazone] (first compound 1 µM, partner dose 2 µM) as listed: 167%	58%	81.2%	28.7%	55.6%	81%	43.9%	95%	64.9%	128%	51%	47.1%	153%	113%	313%	56.6%	51.2%	159%
